Assay results as given in article PMC7819943, “Rice protein-binding microarrays: a tool to detect cis-acting elements near promoter regions in rice”.
Some of the results follow.

Chains of the proteins cited; added tags and fusions are not shown.
UniProt Q0JBA9, entry or part of it: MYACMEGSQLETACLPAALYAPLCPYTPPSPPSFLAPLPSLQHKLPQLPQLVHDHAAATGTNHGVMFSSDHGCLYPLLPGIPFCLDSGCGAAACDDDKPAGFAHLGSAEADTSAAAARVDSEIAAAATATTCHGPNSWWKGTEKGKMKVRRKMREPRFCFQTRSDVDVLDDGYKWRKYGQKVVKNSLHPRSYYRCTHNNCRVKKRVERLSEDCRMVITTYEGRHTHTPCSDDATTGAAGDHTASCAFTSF

The sequences below were run against OsWRKY34 (Oryza sativa, UniProt Q0JBA9 1-250) (assay: protein-binding microarray (RPBM); PBS, 2% BSA, 51.3 ng/ul salmon testes DNA, 50 uM zinc acetate, 200 nM TF, 25 C, 1 h; high values mean tight binding). Conditions: protein: recombinant; tags: N-terminal polyhistidine and DsRed monomer fusion (pET32a); label: CyDye5-dUTP incorporated in the synthesized complementary strand; 3' TTTTT single-stranded linker to array surface; dsDNA, one strand shown.
How it was run: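 Transcription factors were made in E. coli BL21-CodonPlus as N-terminal fusions to a polyhistidine tag and DsRed, then purified on Ni–NTA. After primer extension with Cy5-dUTP and blocking with 2% BSA, a custom Agilent array was exposed for 1 h at 25 °C to 200 nM protein in PBS, 2% BSA, salmon testes DNA and 50 µM zinc acetate. Washed arrays were scanned on an Axon 4000B, and the binding signal is per-feature fluorescence intensity in arbitrary units.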

Row | Sequence | binding signal
1 | TCCTATGCCTGCAGCCTGTATCAAAAAATTTTCACAATGTCGGAGTCACCTAGTGCAG | 8480 fluorescence intensity (a.u.)
2 | ATCCATGCTCTTACCGTCATATTTTCCATAATTTCACTGTCGGAGTCACCTAGTGCAG | 11700 fluorescence intensity (a.u.)
3 | TCTATTCCTACGTTTTTCTCATTTATCTGTTTTCTCAATCCGGAGTCACCTAGTGCAG | 15500 fluorescence intensity (a.u.)
4 | AATTGGTCCTACCCTAATATACGCTTTTTTTTATAGTTCACGGAGTCACCTAGTGCAG | 8560 fluorescence intensity (a.u.)
5 | CTCCAATGCTACATGCCAAGTCATCCGGACTAAACGCGTCCGGAGTCACCTAGTGCAG | 9910 fluorescence intensity (a.u.)
6 | CTTCATTTCCAGGTCATGGGCCTTCTCCGGCTTTAATAGACGGAGTCACCTAGTGCAG | 8530 fluorescence intensity (a.u.)
7 | AGTCCAGCGAGACCCCATCGCCGCCCACCATCCCTCAGTCCGGAGTCACCTAGTGCAG | 8780 fluorescence intensity (a.u.)
8 | GGCCATCATCATTTGTTCCTCATCTTACTCTAGCTTCTCCCGGAGTCACCTAGTGCAG | 9470 fluorescence intensity (a.u.)
9 | CCTTAGGACTTATTATCCCTATTTTTACTGCTTCTTAATACGGAGTCACCTAGTGCAG | 8410 fluorescence intensity (a.u.)
10 | CTCATTCTTTTTTCCTTTGATTTGATTCTTCGCTGCTAACCGGAGTCACCTAGTGCAG | 8460 fluorescence intensity (a.u.)
11 | GGTGGTCCAAAGATATGCACTCTCCCATACCCTAACAACACGGAGTCACCTAGTGCAG | 9020 fluorescence intensity (a.u.)
12 | GTTATTTTAATTTACTTTGGATCACCCTGATTATCGTTTCCGGAGTCACCTAGTGCAG | 8020 fluorescence intensity (a.u.)
13 | CCTGTTAATATGTTCTCAAGTTTGCTACATGTAATTTTTACGGAGTCACCTAGTGCAG | 11000 fluorescence intensity (a.u.)
14 | AGGAGTTGTTTTGTTGGCACAATTTGCGAGTTGGATGGGGCGGAGTCACCTAGTGCAG | 8400 fluorescence intensity (a.u.)
15 | ATCCTTTTTCCTTGCATGTCTCCTTTTCTGTTGATCATTTCGGAGTCACCTAGTGCAG | 14700 fluorescence intensity (a.u.)
16 | TAGTTTTTATTTTTCTTTTCTAATGCTTCTTGGGCATAATCGGAGTCACCTAGTGCAG | 9520 fluorescence intensity (a.u.)
17 | CGACCCCACCGCGAACTCTCCCGTCCTATCCGCAGCGGAGCGGAGTCACCTAGTGCAG | 10900 fluorescence intensity (a.u.)
18 | GTCCTCGGCTAATGCCGCCTCGTCGTCGTCTTCCTCCTCGCGGAGTCACCTAGTGCAG | 8560 fluorescence intensity (a.u.)
19 | ATGGGGTTGTTTGGTTGATGGCTAAGTTTACCATATCTCACGGAGTCACCTAGTGCAG | 10900 fluorescence intensity (a.u.)
20 | GTCTCGTCCTTCATGGTTCGACAACATCGACTCTTCGGCGCGGAGTCACCTAGTGCAG | 8480 fluorescence intensity (a.u.)
21 | TTGTCTCATTGCCAGTGTAAATCCCCTGAGGAATCTAGTACGGAGTCACCTAGTGCAG | 8690 fluorescence intensity (a.u.)
22 | AATGAATATTCCATCTGACCTTGATTTCTTTACTCCTTGACGGAGTCACCTAGTGCAG | 9470 fluorescence intensity (a.u.)
23 | CTTACTATACTATTAATATCCGGTCCCACCTGTCATACACCGGAGTCACCTAGTGCAG | 8290 fluorescence intensity (a.u.)
24 | TTCTTTCCATAGTTCCCATGCCTGCAAAATTCAGGAGTTCCGGAGTCACCTAGTGCAG | 8480 fluorescence intensity (a.u.)
25 | ACCGTGACTTTGGGAGTATTTCTAGCCGTCCGATCCACAGCGGAGTCACCTAGTGCAG | 9110 fluorescence intensity (a.u.)
26 | ACCATTTGTTTCATCCTGGACCATAGCCGCTCATCTTCTCCGGAGTCACCTAGTGCAG | 8270 fluorescence intensity (a.u.)
27 | CGAGGGACCCGTTGTATCTGGTTTTGGGGTTCAAGGACGACGGAGTCACCTAGTGCAG | 9540 fluorescence intensity (a.u.)

Another view of part of the listing above.
Row	Sequence	binding signal
19	ATGGGGTTGTTTGGTTGATGGCTAAGTTTACCATATCTCACGGAGTCACCTAGTGCAG	10900 fluorescence intensity (a.u.)
20	GTCTCGTCCTTCATGGTTCGACAACATCGACTCTTCGGCGCGGAGTCACCTAGTGCAG	8480 fluorescence intensity (a.u.)

Next part

Row | Sequence | binding signal
28 | TTTTTCGACCATTTTCATCCCTAATCGTGCATATTTGTTCCGGAGTCACCTAGTGCAG | 8920 fluorescence intensity (a.u.)
29 | GGCGCAGTCTCCATGCCTCTGGTGATCTTTGTATTCTTTTCGGAGTCACCTAGTGCAG | 9440 fluorescence intensity (a.u.)
30 | CCGACCCGACCGTCTCACCCTGCACGCTGTCGTCCCTCTCCGGAGTCACCTAGTGCAG | 13800 fluorescence intensity (a.u.)
31 | GGTGGGCGGCGGCATATCTGGTGGTGGTGGACCGTGCTGCCGGAGTCACCTAGTGCAG | 8410 fluorescence intensity (a.u.)
32 | CACTCAAAATCTCTTTCGTGTCCACCTCACCTTGCACCACCGGAGTCACCTAGTGCAG | 8300 fluorescence intensity (a.u.)
33 | CCAAGCAGTTGGTGGCTCTGTTACGTACTACATGCGCGCGCGGAGTCACCTAGTGCAG | 12000 fluorescence intensity (a.u.)
34 | TTAGCAACCTCTTTGTGGCCTCGACTGCTGACCTGATTTTCGGAGTCACCTAGTGCAG | 11400 fluorescence intensity (a.u.)
35 | GTTTCCTTGCTGCCCGGCCGCCTGCCCCTCAACCTCATCGCGGAGTCACCTAGTGCAG | 11300 fluorescence intensity (a.u.)
36 | TGACTTTTTAGCATATGTTTGACCGCTCGTCTTATTCAAACGGAGTCACCTAGTGCAG | 8220 fluorescence intensity (a.u.)
37 | GGCCCATTTCGTTGTCCGTCCAGCCGCGCGCCGCCGTGCCCGGAGTCACCTAGTGCAG | 8540 fluorescence intensity (a.u.)
38 | GTGGTTAAAACTTTTATATACATGTTCTTAGCGATCTAAACGGAGTCACCTAGTGCAG | 10000 fluorescence intensity (a.u.)
39 | CTGCGTCCCGCCGTCGACGAGCTCCTTCGGGTTCATCATGCGGAGTCACCTAGTGCAG | 10700 fluorescence intensity (a.u.)
40 | TGGTCGTTTATACACACGTTAGCTTTAGGGTCATGTTGTACGGAGTCACCTAGTGCAG | 8410 fluorescence intensity (a.u.)
41 | TCCGCTTTTGCTTTGCTCTGCTCTGCTGTTTCCCTCTCCTCGGAGTCACCTAGTGCAG | 8900 fluorescence intensity (a.u.)
42 | GCTAGCCACTCTCTTACGCAACCCAGTCTGGCCCAATTATCGGAGTCACCTAGTGCAG | 9660 fluorescence intensity (a.u.)
43 | ATATTCTGAATTCAGCATCCGTTCACCTAGTTCGTGTTACCGGAGTCACCTAGTGCAG | 8910 fluorescence intensity (a.u.)
44 | ATTTCTCTCTCATATTTCTTCTCTCCTCTCTCCTCTACCTCGGAGTCACCTAGTGCAG | 9680 fluorescence intensity (a.u.)
45 | CCATTCCTCTGTTTACCTCTGCTCTGTATACATACTCCGGCGGAGTCACCTAGTGCAG | 9220 fluorescence intensity (a.u.)
46 | CGCTCGATAGAATTCTCTCTGCTTCGCCCTTCGCGGTTTACGGAGTCACCTAGTGCAG | 9550 fluorescence intensity (a.u.)
47 | AATCTTTTCTTCTTCCTTTCTTTCTCCTCTTCCTTTATATCGGAGTCACCTAGTGCAG | 8540 fluorescence intensity (a.u.)
48 | TTAATTTCGGCTTGGTTTAGTTCACAACTTTTTCTTCAAACGGAGTCACCTAGTGCAG | 8500 fluorescence intensity (a.u.)
49 | CTGCGCCTAACTTTGATCGTTCGTCTTATTTGATTTTTTTCGGAGTCACCTAGTGCAG | 12300 fluorescence intensity (a.u.)
50 | CCTCTCTCTTTCTAACCATTTTCTTGTTTTGTTGCCTTGCCGGAGTCACCTAGTGCAG | 10900 fluorescence intensity (a.u.)
51 | TTTTCAGGTGTGGGATTCGTAATGGTAAATATTGTTCTCCCGGAGTCACCTAGTGCAG | 9970 fluorescence intensity (a.u.)
52 | TGGAGCGGCGGCGTTGGGTGGGTCGGCGGAGCAGGAGGATCGGAGTCACCTAGTGCAG | 13400 fluorescence intensity (a.u.)
53 | TACGTGCATTTACTTAATCCTTATTTTTTTTATCACTTCCCGGAGTCACCTAGTGCAG | 9830 fluorescence intensity (a.u.)
54 | TTGCCAGTTCTGTTCTGTTTCTTCTTGGCGACGGGTTGCCCGGAGTCACCTAGTGCAG | 11200 fluorescence intensity (a.u.)
